Results published in the supplement of paper PMC8104966.
± gives the standard deviation of the averaged measurements. The list shows a part of the results. Single values are uncertain here, since repeats match poorly.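 U2OS cells expressing ACE2 were combined with U2OS cells expressing full-length spike, and imaging quantified fusion as the fraction of nuclei displaying both cell types' fluorescent markers. Non-toxic compounds with a fusion z-score under -3, i.e., over three standard deviations below the plate's DMSO wells, are called inhibitory hits.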

Each compound was assayed on U2OS ACE2 x SARS-CoV-2 spike co-culture (assay: cell-cell fusion (fraction fused) z-score vs plate DMSO control; higher = more fusion). Conditions: 30 µM; 5 h; toxicity class: non-toxic, passed QC.

Compound | cell-cell fusion (z-score)
CCCCNc1ccc(C(=O)OCCOCCOCCOCCOCCOCCOCCOCCOCCOC)cc1 | inactive: 0.917
COC(=O)C[C@H]1C(C)(C)C(=O)[C@@H]2CC3C4=CC(=O)O[C@@H](c5ccoc5)[C@]4(C)CCC3[C@@]1(C)C2=O (stereo partly specified) | inactive: 2.28
CN1CCN(C2=Nc3ccccc3Oc3ccc(Cl)cc32)CC1.O=C(O)CCC(=O)O [Loxapine succinate salt] | inactive: 3.51
CC1(C)NC(=O)N(c2ccc([N+](=O)[O-])c(C(F)(F)F)c2)C1=O [Nilutamide] | inactive: 1.09
COc1cc(O)c2c(=O)c3cc(OC)c(OC)cc3oc2c1 | inactive: 2.52
OCC(S)CS (stereo unspecified) | -3.15 ± 2.1
OCC(S)CS (stereo unspecified) [Dithiopropanol] | inactive: 0.502
CCCNCC(O)COc1ccccc1C(=O)CCc1ccccc1.Cl (stereo unspecified) [Propafenone hydrochloride] | inactive: 2.83
CCCNCC(O)COc1ccccc1C(=O)CCc1ccccc1.Cl (stereo unspecified) | inactive: 0.775
Cc1ccnc(NS(=O)(=O)c2ccc(N)cc2)n1 [Sulfamerazine] | inactive: 2.28
NCCO.NCCO.NCCO.NCCO.O=C(O)CN(CCN(CC(=O)O)CC(=O)O)CC(=O)O | inactive: 1.35
Cl.N=C(N)c1ccc(CS(=O)(=O)F)cc1 [4-Amidinophenylmethanesulfonyl fluoride hydrochloride] | inactive: 1.3
Cc1nccn1CC1CCc2c(c3ccccc3n2C)C1=O (stereo unspecified) | inactive: 1.46
CNC(=O)c1ccc(N2C(=S)N(c3ccc(C#N)c(C(F)(F)F)c3)C(=O)C2(C)C)cc1F [MDV3100 (Enzalutamide)] | inactive: 0.942
CC(=O)O[C@@H]1CC[C@@]2(C)C(CC[C@]3(C)C2CC=C2C4CC(C)(C)CC[C@]4(C(=O)O)CC[C@]23C)C1(C)C (stereo partly specified) | inactive: 1.56
C=C(c1ccc(C(=O)O)cc1)c1cc2c(cc1C)C(C)(C)CCC2(C)C [Bexarotene] | inactive: 2.04
Cl.NCCc1ccc(O)c(O)c1 | inactive: -1.46
OC[C@H]1O[C@H](n2cnc3c2N=CNC[C@H]3O)C[C@H]1O [Pentostatin] | inactive: 0.439
COc1ccc([C@@H](C)C(=O)c2ccc(O)cc2O)cc1 | inactive: 3.26
C[C@@H](c1ncncc1F)[C@](O)(Cn1cncn1)c1ccc(F)cc1F [Voriconazole] | inactive: 1.96
COc1ccc2nc(S(=O)Cc3ncc(C)c(OC)c3C)[nH]c2c1 (stereo unspecified) | inactive: -2.04
CC#CCn1c(N2CCC[C@@H](N)C2)nc2c1c(=O)n(Cc1nc(C)c3ccccc3n1)c(=O)n2C.Cl | inactive: 2.57
CNC(=O)c1ccc(N2C(=S)N(c3ccc(C#N)c(C(F)(F)F)c3)C(=O)C2(C)C)cc1F [Enzalutamide] | inactive: 1.61
O=C1c2ccccc2-c2n[nH]c3cccc1c23 | inactive: 2.06

Compound | cell-cell fusion (z-score)
COc1cc(O)c2c(=O)c(O)c(-c3ccccc3)oc2c1 | inactive: 1.95
CN1CCCN=C1/C=C/c1cccc(O)c1.O=C(O)c1cc2ccccc2c(Cc2c(O)c(C(=O)O)cc3ccccc23)c1O | inactive: 2.84
Cc1cnc(NC(=O)C2=C([O-])c3ccccc3S(=O)(=O)N2C)s1.[Na+] | inactive: 3.64
Cc1onc(-c2ccccc2)c1C(=O)N[C@@H]1C(=O)N2[C@@H]1SC(C)(C)[C@@H]2C(=O)[O-].[Na+] [Oxacillin sodium] | inactive: 2.59
COCCOC(=O)C1=C(C)NC(C)=C(C(=O)OC(C)C)C1c1cccc([N+](=O)[O-])c1 (stereo unspecified) | inactive: 2.14
COCCOC(=O)C1=C(C)NC(C)=C(C(=O)OC(C)C)C1c1cccc([N+](=O)[O-])c1 (stereo unspecified) [Nimodipine] | inactive: 3.25
Nc1ncnc2c1ncn2[C@@H]1O[C@H](CO)[C@H](O)C1O (stereo partly specified) [Adenosine] | inactive: 1.21
CC(C)/C(O)=C1/C(=O)O[C@@H](c2ccoc2)[C@]2(C)C(O)[C@@H](O)[C@@]34OC5(C)OC67CC(C)(C(O)[C@]6(O)[C@@H](O)[C@]3(O5)C12)[C@H](CC(=O)O)[C@]74C (stereo partly specified) | inactive: 2.36
CCCCOc1cc(C(=O)NCCN(CC)CC)c2ccccc2n1 [Dibucaine] | inactive: 2.65
Cl.Oc1ccc2c3c1OC1[C@@H](O)CC[C@@]4(O)[C@@H](C2)N(CC2CCC2)CC[C@]314 (stereo partly specified) | inactive: 1.03
CCOc1cc(CC(=O)N[C@@H](CC(C)C)c2ccccc2N2CCCCC2)ccc1C(=O)O [Repaglinide] | inactive: 1.02
O=C(Cn1ccnc1[N+](=O)[O-])NCc1ccccc1 [Benznidazole] | inactive: 1.67
CC1(C)C(\C=C(\Cl)Cl)C1C(=O)OCc1cccc(Oc2ccccc2)c1 (stereo unspecified) [Permethrin] | inactive: 2.85
N#CC[C@@H](C1CCCC1)n1cc(-c2ncnc3[nH]ccc23)cn1 [S-Ruxolitinib] | inactive: -0.171
CC[C@H](Nc1ncnc2[nH]cnc12)c1nc2cccc(F)c2c(=O)n1-c1ccccc1 | inactive: 0.588
CN(C)CCCCSC(=N)N | inactive: -0.302
COc1ccccc1OCC(O)CN1CCN(CC(=O)Nc2c(C)cccc2C)CC1 (stereo unspecified) [Ranolazine (Ranexa)] | inactive: 0.778
FC(F)(F)c1ccccc1-n1ccnc1 [1-[2-(Trifluoromethyl)phenyl]imidazole] | inactive: 1.26
COc1cccc(-c2cc(=O)c3cc(OC)ccc3o2)c1 | inactive: 2.39
CCC(NC(C)C)C(O)c1ccc(O)c(O)c1.CS(=O)(=O)O (stereo unspecified) [Isoetharine mesylate salt] | inactive: -1.4
Clc1ccc(COC(Cn2ccnc2)c2ccc(Cl)cc2Cl)c(Cl)c1.O=[N+]([O-])O (stereo unspecified) | active: -3.11
NCC1(CC(=O)O)CCCCC1 [Gabapentin] | inactive: 2.5
CCCCNc1cc(C(=O)O)cc(S(N)(=O)=O)c1Oc1ccccc1 [Bumetanide] | inactive: 2.16
O=c1cccc2n1C[C@@H]1CNC[C@H]2C1 | inactive: 1.17

Taken from above.
cell-cell fusion (z-score), NCC1(CC(=O)O)CCCCC1 [Gabapentin] reads inactive: 2.5
cell-cell fusion (z-score), Cl.Oc1ccc2c3c1OC1[C@@H](O)CC[C@@]4(O)[C@@H](C2)N(CC2CCC2)CC[C@]314 (stereo partly specified) reads inactive: 1.03
cell-cell fusion (z-score), CC(C)/C(O)=C1/C(=O)O[C@@H](c2ccoc2)[C@]2(C)C(O)[C@@H](O)[C@@]34OC5(C)OC67CC(C)(C(O)[C@]6(O)[C@@H](O)[C@]3(O5)C12)[C@H](CC(=O)O)[C@]74C (stereo partly specified) reads inactive: 2.36

(listing goes on)

Compound | cell-cell fusion (z-score)
COCCCC/C(=N\OCCN)c1ccc(C(F)(F)F)cc1.O=C(O)/C=C\C(=O)O [Fluvoxamine maleate] | inactive: 1.86
Cl.NCCc1c[nH]c2ccc(O)cc12 [Serotonin hydrochloride] | inactive: 3.12
Cl.NCCc1c[nH]c2ccc(O)cc12 | inactive: 2.08
Cc1ncc([N+](=O)[O-])n1CC(C)O (stereo unspecified) [Secnidazole] | inactive: 1.83
COc1ccccc1OCCNCC(O)COc1cccc2[nH]c3ccccc3c12 (stereo unspecified) [Carvedilol] | inactive: 0.235
CCC(=O)OCC(=O)C1(OC(=O)CC)C(C)CC2C3CCC4=CC(=O)C=CC4(C)C3(Cl)C(O)CC21C (stereo unspecified) | inactive: 1.56
O=[N+]([O-])O[C@@H]1CO[C@H]2[C@@H]1OC[C@@H]2O | inactive: 2.32
CC[N+](C)(CC)CCOC(=O)C(O)(c1ccccc1)C1CCCCC1.[Br-] (stereo unspecified) | inactive: 2.39
Cc1cnc(C(=O)NCCc2ccc(S(=O)(=O)NC(=O)NC3CCCCC3)cc2)cn1 | inactive: 2.03
COS(=O)(=O)[O-].C[N+]1(C)CCC(=C(c2ccccc2)c2ccccc2)CC1 [Diphemanil mesylate] | inactive: 2.43
Cl.Cl.NCCSSCCN | inactive: 2.44
Cl.Cl.NCCSSCCN [Cystamine dihydrochloride] | inactive: 1.27
Cc1c(N)nc([C@H](CC(N)=O)NC[C@@H](N)C(N)=O)nc1C(=O)N[C@H](C(=O)N[C@@H](C)[C@H](O)[C@@H](C)C(=O)N[C@@H](C(=O)NCCc1nc(-c2nc(C(=O)NCCC[S+](C)C)cs2)cs1)[C@@H](C)O)C(O[C@H]1O[C@H](CO)[C@H](O)[C@@H](O)[C@H]1O[C@H]1O[C@H](CO)[C@@H](O)[C@H](OC(N)=O)[C@@H]1O)c1c[nH]cn1.O=S(=O)([O-])O (stereo partly specified) [Bleomycin sulfate] | inactive: 0.475
Cc1ncc(-c2ccnc(Nc3ccc(S(C)(=O)=O)cc3)n2)n1C(C)C | inactive: 0.122
O=C(O)c1cccnc1 [Nicotinic acid] | inactive: 3.84
CC(=O)c1ccc2c(c1)N(CCCN(C)C)c1ccccc1S2.O=C(O)/C=C\C(=O)O | inactive: 3.21
COC(=O)/C(C)=C\CC12OC(C)(C)C3CC(C=C4C(=O)c5c(OC)c6c(c(CC=C(C)C)c5OC431)OC(C)(CCC=C(C)C)C=C6)C2=O (stereo unspecified) | inactive: 2.89
COc1cc(O)c2c(=O)cc(C)oc2c1CC=C(C)C | inactive: 1.71
Cc1[nH]c(=O)c(C#N)cc1-c1ccncc1 [Milrinone] | inactive: 1.71
COCCCOc1ccnc(CSc2nc3ccccc3[nH]2)c1C [Rabeprazole Related Compound E] | inactive: 2.05
CC1(C)C2CC[C@]3(C)C(C(=O)C=C4[C@@H]5C[C@@](C)(C(=O)O)CC[C@]5(C)CC[C@]43C)[C@@]2(C)CC[C@@H]1O (stereo partly specified) | inactive: 3.42
CCc1oc2ccccc2c1C(=O)c1cc(Br)c(O)c(Br)c1 | inactive: 2.9
CN1CCC[C@@H]1CCO[C@](C)(c1ccccc1)c1ccc(Cl)cc1.O=C(O)/C=C/C(=O)O | inactive: -1.31
